Test results from the supplement of paper PMC10849652.
This is one part of the list.

The chains behind the UniProt entries cited, without tags or fusion partners. Where a name states a change or a piece, a line headed by the entry shows the natural chain unless it says otherwise.
UniProt P16260: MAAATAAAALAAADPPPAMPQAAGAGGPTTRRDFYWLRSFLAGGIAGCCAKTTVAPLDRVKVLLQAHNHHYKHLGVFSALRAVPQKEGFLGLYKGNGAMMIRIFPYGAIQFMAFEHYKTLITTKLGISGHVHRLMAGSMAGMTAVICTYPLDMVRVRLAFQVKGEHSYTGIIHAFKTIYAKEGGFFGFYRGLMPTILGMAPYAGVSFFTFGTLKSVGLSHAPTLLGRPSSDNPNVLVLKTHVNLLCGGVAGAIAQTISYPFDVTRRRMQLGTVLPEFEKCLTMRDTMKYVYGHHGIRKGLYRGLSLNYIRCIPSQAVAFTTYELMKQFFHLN
UniProt Q9UHW9: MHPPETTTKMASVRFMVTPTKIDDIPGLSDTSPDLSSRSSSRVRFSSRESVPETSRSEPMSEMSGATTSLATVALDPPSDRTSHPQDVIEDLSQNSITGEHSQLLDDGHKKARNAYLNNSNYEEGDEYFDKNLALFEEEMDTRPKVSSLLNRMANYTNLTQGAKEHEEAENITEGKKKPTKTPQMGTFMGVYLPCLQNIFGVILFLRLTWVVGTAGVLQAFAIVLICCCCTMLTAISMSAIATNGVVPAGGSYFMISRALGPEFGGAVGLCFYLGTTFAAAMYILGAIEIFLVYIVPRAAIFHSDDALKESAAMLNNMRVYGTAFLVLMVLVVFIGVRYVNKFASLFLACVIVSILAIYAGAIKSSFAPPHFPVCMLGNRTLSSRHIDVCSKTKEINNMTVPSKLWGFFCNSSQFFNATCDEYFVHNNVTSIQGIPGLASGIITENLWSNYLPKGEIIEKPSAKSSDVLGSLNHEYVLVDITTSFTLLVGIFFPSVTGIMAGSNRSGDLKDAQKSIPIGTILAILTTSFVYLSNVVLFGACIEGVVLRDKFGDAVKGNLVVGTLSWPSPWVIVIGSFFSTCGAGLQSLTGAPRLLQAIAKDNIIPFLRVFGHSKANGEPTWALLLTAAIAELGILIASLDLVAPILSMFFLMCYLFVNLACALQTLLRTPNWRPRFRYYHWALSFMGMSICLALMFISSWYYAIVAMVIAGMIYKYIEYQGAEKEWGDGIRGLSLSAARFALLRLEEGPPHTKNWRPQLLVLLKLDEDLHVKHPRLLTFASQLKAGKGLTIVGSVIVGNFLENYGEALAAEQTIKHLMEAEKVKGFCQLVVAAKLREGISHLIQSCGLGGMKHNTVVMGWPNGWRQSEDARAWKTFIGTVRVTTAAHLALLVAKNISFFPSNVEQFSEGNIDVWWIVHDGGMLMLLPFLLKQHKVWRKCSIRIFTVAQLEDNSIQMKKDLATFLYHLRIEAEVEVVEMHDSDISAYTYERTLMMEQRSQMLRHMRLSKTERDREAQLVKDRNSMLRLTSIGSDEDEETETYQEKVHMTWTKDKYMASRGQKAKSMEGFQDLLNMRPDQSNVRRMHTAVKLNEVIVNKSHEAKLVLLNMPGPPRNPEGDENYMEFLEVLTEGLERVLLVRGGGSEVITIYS
UniProt Q9NP59: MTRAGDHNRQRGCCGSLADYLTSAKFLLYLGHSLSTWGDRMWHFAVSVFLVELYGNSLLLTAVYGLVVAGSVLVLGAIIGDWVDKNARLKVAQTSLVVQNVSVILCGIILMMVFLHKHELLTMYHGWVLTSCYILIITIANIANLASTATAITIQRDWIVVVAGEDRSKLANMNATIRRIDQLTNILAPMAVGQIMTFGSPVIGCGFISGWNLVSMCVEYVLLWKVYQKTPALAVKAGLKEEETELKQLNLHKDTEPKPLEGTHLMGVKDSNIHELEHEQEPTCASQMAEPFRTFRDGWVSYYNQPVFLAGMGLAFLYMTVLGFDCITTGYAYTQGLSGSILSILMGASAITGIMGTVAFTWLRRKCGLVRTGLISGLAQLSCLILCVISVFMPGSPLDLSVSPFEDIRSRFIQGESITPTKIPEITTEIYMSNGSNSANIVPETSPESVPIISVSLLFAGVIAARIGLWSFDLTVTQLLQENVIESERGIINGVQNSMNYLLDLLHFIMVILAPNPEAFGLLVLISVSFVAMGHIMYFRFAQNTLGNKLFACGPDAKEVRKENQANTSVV
UniProt Q9BWU0: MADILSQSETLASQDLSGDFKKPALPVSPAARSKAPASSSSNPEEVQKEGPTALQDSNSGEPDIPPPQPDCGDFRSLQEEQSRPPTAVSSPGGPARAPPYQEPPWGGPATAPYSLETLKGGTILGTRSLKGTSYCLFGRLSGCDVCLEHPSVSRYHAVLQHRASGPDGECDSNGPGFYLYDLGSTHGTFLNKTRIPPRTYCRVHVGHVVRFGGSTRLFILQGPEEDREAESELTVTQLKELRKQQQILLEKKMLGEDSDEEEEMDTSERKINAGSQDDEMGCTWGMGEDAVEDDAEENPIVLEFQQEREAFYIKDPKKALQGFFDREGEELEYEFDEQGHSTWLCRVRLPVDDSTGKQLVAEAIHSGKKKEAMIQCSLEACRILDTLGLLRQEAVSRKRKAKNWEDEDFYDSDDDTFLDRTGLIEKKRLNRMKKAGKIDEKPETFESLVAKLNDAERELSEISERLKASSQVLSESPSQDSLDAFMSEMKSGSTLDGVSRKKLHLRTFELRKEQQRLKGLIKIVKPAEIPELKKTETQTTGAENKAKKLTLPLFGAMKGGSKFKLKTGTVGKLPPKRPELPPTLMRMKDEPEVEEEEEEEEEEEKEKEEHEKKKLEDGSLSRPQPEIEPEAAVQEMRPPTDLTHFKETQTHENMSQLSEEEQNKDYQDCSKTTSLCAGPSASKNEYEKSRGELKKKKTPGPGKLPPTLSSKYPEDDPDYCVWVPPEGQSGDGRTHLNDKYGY
UniProt O43826: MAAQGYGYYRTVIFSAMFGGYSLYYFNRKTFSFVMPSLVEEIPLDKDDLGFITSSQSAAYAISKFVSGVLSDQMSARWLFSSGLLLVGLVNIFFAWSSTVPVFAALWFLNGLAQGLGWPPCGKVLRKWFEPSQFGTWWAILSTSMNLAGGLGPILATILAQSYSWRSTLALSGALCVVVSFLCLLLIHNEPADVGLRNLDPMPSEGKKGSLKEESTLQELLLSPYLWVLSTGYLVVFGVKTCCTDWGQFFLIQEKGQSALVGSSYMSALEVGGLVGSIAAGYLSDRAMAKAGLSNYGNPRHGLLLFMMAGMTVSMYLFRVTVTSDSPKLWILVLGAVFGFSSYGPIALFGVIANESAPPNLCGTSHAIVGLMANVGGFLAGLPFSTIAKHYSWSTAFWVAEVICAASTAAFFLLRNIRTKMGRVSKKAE
UniProt Q8TB61: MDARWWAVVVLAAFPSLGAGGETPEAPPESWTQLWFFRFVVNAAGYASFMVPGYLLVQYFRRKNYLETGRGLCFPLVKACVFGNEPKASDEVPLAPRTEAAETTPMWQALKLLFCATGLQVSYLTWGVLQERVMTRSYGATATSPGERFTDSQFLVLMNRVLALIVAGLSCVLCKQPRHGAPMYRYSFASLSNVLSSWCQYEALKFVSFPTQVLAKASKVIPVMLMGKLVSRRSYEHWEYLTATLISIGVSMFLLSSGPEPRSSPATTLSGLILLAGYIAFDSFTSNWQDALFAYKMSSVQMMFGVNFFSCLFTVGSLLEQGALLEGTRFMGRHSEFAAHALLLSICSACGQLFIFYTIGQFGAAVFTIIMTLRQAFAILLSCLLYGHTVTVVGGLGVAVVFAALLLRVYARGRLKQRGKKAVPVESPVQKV
UniProt P48029: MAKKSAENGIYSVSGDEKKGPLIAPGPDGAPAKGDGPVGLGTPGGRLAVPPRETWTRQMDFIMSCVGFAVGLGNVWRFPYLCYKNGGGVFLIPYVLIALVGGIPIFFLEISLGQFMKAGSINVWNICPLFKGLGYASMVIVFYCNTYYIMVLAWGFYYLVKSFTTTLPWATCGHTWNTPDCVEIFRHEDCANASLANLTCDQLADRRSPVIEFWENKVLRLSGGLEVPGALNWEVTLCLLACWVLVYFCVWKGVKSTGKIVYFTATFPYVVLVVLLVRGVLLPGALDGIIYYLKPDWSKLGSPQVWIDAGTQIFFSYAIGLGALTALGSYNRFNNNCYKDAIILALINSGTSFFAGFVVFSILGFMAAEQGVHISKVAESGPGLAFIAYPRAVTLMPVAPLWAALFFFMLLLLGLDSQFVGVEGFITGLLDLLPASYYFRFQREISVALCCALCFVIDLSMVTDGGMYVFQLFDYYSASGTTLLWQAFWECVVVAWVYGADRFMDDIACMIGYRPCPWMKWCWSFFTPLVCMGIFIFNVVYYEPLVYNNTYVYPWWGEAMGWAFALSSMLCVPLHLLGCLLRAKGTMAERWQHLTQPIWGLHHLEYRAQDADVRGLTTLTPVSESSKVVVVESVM
UniProt Q8IXU6: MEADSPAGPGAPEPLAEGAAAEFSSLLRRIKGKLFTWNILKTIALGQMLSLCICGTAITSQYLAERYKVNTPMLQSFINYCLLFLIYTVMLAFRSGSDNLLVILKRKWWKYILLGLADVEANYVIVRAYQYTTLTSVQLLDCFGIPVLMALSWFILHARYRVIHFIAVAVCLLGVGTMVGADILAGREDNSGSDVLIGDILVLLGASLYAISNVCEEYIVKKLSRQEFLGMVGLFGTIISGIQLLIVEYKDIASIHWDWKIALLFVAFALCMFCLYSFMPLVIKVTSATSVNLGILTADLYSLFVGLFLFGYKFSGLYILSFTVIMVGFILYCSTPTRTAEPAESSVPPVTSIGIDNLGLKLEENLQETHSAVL
UniProt Q9UJS0: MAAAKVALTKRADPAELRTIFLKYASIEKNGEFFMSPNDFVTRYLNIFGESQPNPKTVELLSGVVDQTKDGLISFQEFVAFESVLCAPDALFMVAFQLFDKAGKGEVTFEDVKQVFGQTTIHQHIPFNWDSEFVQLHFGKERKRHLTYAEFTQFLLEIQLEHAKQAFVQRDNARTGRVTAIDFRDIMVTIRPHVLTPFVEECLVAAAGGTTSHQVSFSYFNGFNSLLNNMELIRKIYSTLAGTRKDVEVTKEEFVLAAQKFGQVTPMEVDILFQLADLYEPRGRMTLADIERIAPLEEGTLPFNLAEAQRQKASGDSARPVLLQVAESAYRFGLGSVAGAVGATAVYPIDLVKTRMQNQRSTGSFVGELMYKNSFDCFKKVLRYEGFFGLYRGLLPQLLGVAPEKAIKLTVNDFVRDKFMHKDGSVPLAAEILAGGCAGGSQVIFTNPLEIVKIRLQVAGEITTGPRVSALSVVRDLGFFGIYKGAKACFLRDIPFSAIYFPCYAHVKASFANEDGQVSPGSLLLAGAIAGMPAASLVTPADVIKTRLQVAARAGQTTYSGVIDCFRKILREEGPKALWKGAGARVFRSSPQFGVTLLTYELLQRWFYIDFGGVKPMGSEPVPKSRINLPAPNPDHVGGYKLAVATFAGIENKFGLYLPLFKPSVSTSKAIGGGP
UniProt Q9BSK2: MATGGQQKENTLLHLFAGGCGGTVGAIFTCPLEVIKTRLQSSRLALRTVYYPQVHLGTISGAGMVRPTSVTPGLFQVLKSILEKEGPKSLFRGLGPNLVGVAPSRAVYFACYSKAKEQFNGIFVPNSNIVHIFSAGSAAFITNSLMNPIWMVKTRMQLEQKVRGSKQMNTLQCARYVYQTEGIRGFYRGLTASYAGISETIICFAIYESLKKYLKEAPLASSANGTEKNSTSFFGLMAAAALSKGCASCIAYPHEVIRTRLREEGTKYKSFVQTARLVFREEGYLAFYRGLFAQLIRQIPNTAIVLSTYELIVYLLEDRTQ
UniProt P05141: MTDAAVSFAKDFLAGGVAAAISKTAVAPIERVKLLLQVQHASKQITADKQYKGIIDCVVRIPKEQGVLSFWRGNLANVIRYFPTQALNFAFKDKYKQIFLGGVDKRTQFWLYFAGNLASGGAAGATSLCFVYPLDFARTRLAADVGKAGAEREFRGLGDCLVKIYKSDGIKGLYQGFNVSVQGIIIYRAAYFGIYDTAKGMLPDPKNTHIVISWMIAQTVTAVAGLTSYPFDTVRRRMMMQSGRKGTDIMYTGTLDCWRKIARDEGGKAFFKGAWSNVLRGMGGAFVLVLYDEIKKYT
UniProt P08195: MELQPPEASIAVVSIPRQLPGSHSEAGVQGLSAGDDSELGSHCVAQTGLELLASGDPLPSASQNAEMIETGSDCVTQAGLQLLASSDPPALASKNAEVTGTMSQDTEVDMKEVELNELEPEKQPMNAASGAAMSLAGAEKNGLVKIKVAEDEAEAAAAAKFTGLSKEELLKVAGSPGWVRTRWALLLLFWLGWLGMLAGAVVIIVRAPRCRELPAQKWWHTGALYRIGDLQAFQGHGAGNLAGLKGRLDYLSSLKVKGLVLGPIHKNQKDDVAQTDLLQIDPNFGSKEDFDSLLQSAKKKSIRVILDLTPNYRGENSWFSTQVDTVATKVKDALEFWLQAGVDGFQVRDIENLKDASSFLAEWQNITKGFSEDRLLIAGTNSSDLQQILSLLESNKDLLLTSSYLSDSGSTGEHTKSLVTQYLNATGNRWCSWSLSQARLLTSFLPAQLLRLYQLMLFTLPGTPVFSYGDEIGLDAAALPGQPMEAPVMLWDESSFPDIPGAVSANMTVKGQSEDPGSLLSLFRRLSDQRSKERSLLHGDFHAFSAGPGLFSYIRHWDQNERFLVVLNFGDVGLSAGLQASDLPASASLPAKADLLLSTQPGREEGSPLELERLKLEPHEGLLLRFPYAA

Columns and labels:
Test in all cases: log2 fold change, soluble protein after heating vs DMSO (PISA); higher = thermal stabilisation; K562 cells, 10 uM, 30 min; active = over 0.2 and 3.5 SD of the protein, either way, in both replicates (recomputed)
[1] = compound: CC[C@@H]1C(=O)N(C)c2cnc(Nc3ccc(C(=O)NC4CCN(C)CC4)cc3OC)nc2N1C1CCCC1
Outline: (§1)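 Aliquots of K562 cells (2×10^6 cells/mL) treated with 10 μM compound for 30 min were heated for 3 min over 48°C-58°C. After pooling and extraction in PBS with 0.5% NP-40 at 4°C, soluble protein from a 21,000xg, 90 min spin was quantified by TMTpro 16plex LC-MS/MS with channel sums equalised. Thermal stability is expressed against control samples, from duplicates, as a log2 fold change.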

volasertib = compound: CC[C@@H]1C(=O)N(C)c2cnc(Nc3ccc(C(=O)N[C@H]4CC[C@H](N5CCN(CC6CC6)CC5)CC4)cc3OC)nc2N1C(C)C [volasertib]
Outline: as §1

[2] = compound: CC[C@H](C)N1C=C(C2=C(C=C(C=C21)C3=CN=C(C=C3)N4CCNCC4)C(=O)NCC5=C(C=C(NC5=O)C)C)C
Outline: as §1

epoxomicin = compound: CC[C@H](C)[C@@H](C(=O)N[C@@H]([C@@H](C)O)C(=O)N[C@@H](CC(C)C)C(=O)[C@]1(CO1)C)NC(=O)[C@H]([C@@H](C)CC)N(C)C(=O)C [epoxomicin]
Outline: as §1

[3] = compound: CCn1c(C(=O)N(C2CC2)C2CC2)cc2c3c(ncn3C)c(Nc3cc(C)n(C)n3)nc21
Outline: as §1

[4] = compound: CCn1cc(-c2ccnc3[nH]c(-c4cccc(CN(C)C)c4)cc23)c(-c2ccc(NC(=O)N(C)C)cc2)n1
Outline: as §1

[5] = compound: CN(C)CC(=O)Nc1ccc2[nH]c(=O)c3ccccc3c2c1
Outline: as §1

rosiglitazone = compound: CN(CCOC1=CC=C(C=C1)C[C@H]2C(=O)NC(=O)S2)C3=CC=CC=N3 (racemic) [rosiglitazone]
Outline: as §1

[6] = compound: CN1C2=C(C3=C1C(=O)N(N=C3)CC4=CC(=CC=C4)N)SC(=C2)S(=O)C
Outline: as §1

[7] = compound: CN1CCC(CNc2ccc3ncc(-c4cccc(OC(F)(F)F)c4)n3n2)CC1
Outline: as §1

saracatinib = compound: CN1CCN(CCOc2cc(OC3CCOCC3)c3c(Nc4c(Cl)ccc5c4OCO5)ncnc3c2)CC1 [saracatinib]
Outline: as §1

sotrastaurin = compound: CN1CCN(c2nc(C3=C(c4c[nH]c5ccccc45)C(=O)NC3=O)c3ccccc3n2)CC1 [sotrastaurin]
Outline: as §1

alvocidib = compound: CN1CC[C@H](c2c(O)cc(O)c3c(=O)cc(-c4ccccc4Cl)oc23)[C@H](O)C1 [alvocidib]
Outline: as §1

Tubastatin A = compound: CN1CCc2c(c3ccccc3n2Cc2ccc(C(=O)NO)cc2)C1 [Tubastatin A]
Outline: as §1

[8] = compound: CNC(=O)C1=CC=CC=C1NC2=NC(=NC=C2Cl)NC3=C(C=C(C=C3)N4CCOCC4)OC
Outline: as §1

defactinib = compound: CNC(=O)c1ccc(Nc2ncc(C(F)(F)F)c(NCc3nccnc3N(C)S(C)(=O)=O)n2)cc1 [defactinib]
Outline: as §1

rucaparib = compound: CNCc1ccc(-c2[nH]c3cc(F)cc4c3c2CCNC4=O)cc1 [rucaparib]
Outline: as §1

[9] = compound: CNc1nc(-c2ccc3c(N)n[nH]c3c2)cc(N2C[C@@H](C(=O)NC3CCCCC3)CC[C@H]2C)n1
Outline: as §1

encorafenib = compound: COC(=O)N[C@@H](C)CNc1nccc(-c2cn(C(C)C)nc2-c2cc(Cl)cc(NS(C)(=O)=O)c2F)n1 [encorafenib]
Outline: as §1

[10] = compound: COC(=O)[C@H](CCSC)NC(=O)C1=C(C=C(C=C1)NC[C@H](CS)N)C2=CC=CC=C2
Outline: as §1

Measured: log2 fold change

SLC25A16 (UniProt P16260)
inactive: [1] 0.015 | volasertib 0.095 | [2] -0.019 | epoxomicin -0.047 | [3] 0.049 | [4] -0.064 | [5] -0.026 | rosiglitazone -0.014 | [6] -0.059 | [7] -0.143 | saracatinib 0.071 | sotrastaurin 0.082 | alvocidib -0.116 | Tubastatin A 0.092 | [8] -0.082 | defactinib 0 | rucaparib 0.06 | [9] -0.041 | encorafenib 0.009 | [10] 0.053

SLC12A6 isoform 2 (UniProt Q9UHW9)
inactive: [1] 0.016 | volasertib -0.04 | [2] 0.016 | epoxomicin 0.02 | [3] 0.058 | [4] -0.033 | [5] 0.041 | rosiglitazone -0.067 | [6] -0.025 | [7] -0.025 | saracatinib 0.062 | sotrastaurin 0.028 | alvocidib 0.008 | Tubastatin A -0.034 | [8] 0.023 | defactinib -0.059 | rucaparib -0.006 | [9] -0.054 | encorafenib 0 | [10] 0.002

SLC40A1 (UniProt Q9NP59)
inactive: [1] 0.18 | volasertib 0.072 | [2] 0.098 | epoxomicin -0.057 | [3] -0.091 | [4] -0.073 | [5] 0.076 | rosiglitazone 0.097 | [6] -0.061 | [7] 0.148 | saracatinib 0.042 | sotrastaurin 0.036 | alvocidib 0.067 | Tubastatin A -0.038 | [8] -0.001 | defactinib -0.05 | rucaparib 0.005 | [9] -0.037 | encorafenib 0.046 | [10] 0.201

SLC4A1AP (UniProt Q9BWU0)
inactive: [1] -0.048 | volasertib -0.117 | [2] 0.04 | epoxomicin 0.056 | [3] -0.05 | [4] 0.023 | [5] 0.023 | rosiglitazone 0.028 | [6] -0.001 | [7] -0.024 | saracatinib -0.015 | sotrastaurin -0.025 | alvocidib -0.067 | Tubastatin A 0.027 | [8] 0.042 | defactinib -0.089 | rucaparib -0.019 | [9] -0.022 | encorafenib 0.054 | [10] 0

SLC37A4 isoform 2 (UniProt O43826)
inactive: [1] 0.041 | volasertib -0.048 | [2] -0.04 | epoxomicin -0.029 | [3] 0.002 | [4] 0.022 | [5] 0.058 | rosiglitazone -0.063 | [6] -0.023 | [7] 0.008 | saracatinib 0.12 | sotrastaurin 0.004 | alvocidib 0.078 | Tubastatin A -0.017 | [8] -0.016 | defactinib -0.029 | rucaparib -0.047 | [9] -0.053 | encorafenib 0.008 | [10] 0.05

SLC35B2 (UniProt Q8TB61)
inactive: [1] -0.015 | volasertib -0.059 | [2] -0.04 | epoxomicin 0.004 | [3] 0.03 | [4] 0.014 | [5] 0 | rosiglitazone -0.008 | [6] -0.039 | [7] 0.032 | saracatinib 0.016 | sotrastaurin -0.004 | alvocidib 0.018 | Tubastatin A -0.052 | [8] 0.041 | defactinib -0.053 | rucaparib 0.014 | [9] -0.056 | encorafenib -0.03 | [10] 0

SLC11A2 isoform 3 (UniProt P49281)
inactive: [1] 0.062 | volasertib -0.088 | [2] -0.121 | epoxomicin -0.054 | [3] 0.071 | [5] -0.022 | rosiglitazone -0.007 | [6] -0.06 | saracatinib -0.04 | sotrastaurin 0.04 | alvocidib 0.01 | Tubastatin A -0.023 | [8] 0.041 | defactinib -0.085 | rucaparib -0.193 | [9] -0.084 | encorafenib 0.091 | [10] -0.006

SLC5A6 (UniProt Q9Y289)
inactive: [1] 0.063 | volasertib -0.021 | [2] -0.013 | epoxomicin -0.008 | [3] 0.024 | [4] -0.069 | [5] -0.01 | rosiglitazone 0.033 | [6] -0.056 | [7] 0.152 | saracatinib 0.058 | sotrastaurin 0.048 | alvocidib -0.005 | Tubastatin A 0.009 | [8] -0.035 | defactinib -0.038 | rucaparib 0.029 | [9] 0.042 | encorafenib 0.035 | [10] 0.028

SLC6A8 (UniProt P48029)
inactive: [1] 0.053 | volasertib 0.092 | [2] -0.12 | epoxomicin -0.007 | [3] -0.068 | [4] -0.154 | [5] 0.077 | rosiglitazone -0.051 | [6] -0.064 | [7] -0.031 | saracatinib 0.131 | sotrastaurin 0.055 | alvocidib -0.079 | Tubastatin A -0.056 | [8] -0.085 | defactinib 0.014 | rucaparib -0.048 | [9] -0.02 | encorafenib 0.027 | [10] 0.127

SLC7A5 (UniProt Q01650)
inactive: [1] 0.043 | volasertib -0.102 | [2] -0.105 | epoxomicin -0.11 | [3] 0.029 | [4] -0.026 | [5] 0.018 | rosiglitazone 0.032 | [6] -0.136 | [7] 0.153 | saracatinib 0.062 | sotrastaurin -0.029 | alvocidib -0.017 | Tubastatin A -0.008 | [8] -0.039 | defactinib -0.077 | rucaparib -0.064 | [9] 0.053 | encorafenib 0.029 | [10] -0.021

SLC35F2 (UniProt Q8IXU6)
inactive: [1] 0.059 | volasertib 0.024 | [2] -0.006 | epoxomicin -0.088 | [3] 0.023 | [4] -0.003 | [5] 0.041 | rosiglitazone -0.026 | [6] -0.003 | [7] 0.107 | saracatinib 0.172 | sotrastaurin 0.075 | alvocidib -0.02 | Tubastatin A -0.005 | [8] -0.031 | defactinib -0.018 | rucaparib 0.011 | [9] -0.032 | encorafenib -0.013 | [10] -0.02

SLC25A13 isoform 2 (UniProt Q9UJS0)
inactive: [1] -0.006 | volasertib 0.012 | [2] -0.031 | epoxomicin -0.021 | [3] 0.012 | [4] 0.03 | [5] 0.001 | rosiglitazone 0.01 | [6] -0.005 | [7] 0.055 | saracatinib 0.018 | sotrastaurin 0.046 | alvocidib -0.002 | Tubastatin A -0.004 | [8] -0.008 | defactinib -0.012 | rucaparib 0.007 | [9] -0.016 | encorafenib -0.014 | [10] 0.018

Quoted at random: 2 records from the list, in no set order.
SLC6A8 (UniProt P48029)
inactive: [1] 0.053 | volasertib 0.092 | [2] -0.12 | epoxomicin -0.007 | [3] -0.068 | [4] -0.154 | [5] 0.077 | rosiglitazone -0.051 | [6] -0.064 | [7] -0.031 | saracatinib 0.131 | sotrastaurin 0.055 | alvocidib -0.079 | Tubastatin A -0.056 | [8] -0.085 | defactinib 0.014 | rucaparib -0.048 | [9] -0.02 | encorafenib 0.027 | [10] 0.127

SLC25A13 isoform 2 (UniProt Q9UJS0)
inactive: [1] -0.006 | volasertib 0.012 | [2] -0.031 | epoxomicin -0.021 | [3] 0.012 | [4] 0.03 | [5] 0.001 | rosiglitazone 0.01 | [6] -0.005 | [7] 0.055 | saracatinib 0.018 | sotrastaurin 0.046 | alvocidib -0.002 | Tubastatin A -0.004 | [8] -0.008 | defactinib -0.012 | rucaparib 0.007 | [9] -0.016 | encorafenib -0.014 | [10] 0.018

The list continues.

SLC25A33 (UniProt Q9BSK2)
inactive: [1] -0.021 | volasertib 0.014 | [2] -0.063 | epoxomicin 0.047 | [3] 0.047 | [4] -0.036 | [5] -0.043 | rosiglitazone -0.025 | [6] 0.016 | [7] 0.187 | saracatinib 0.065 | sotrastaurin 0.044 | alvocidib 0 | Tubastatin A -0.039 | [8] -0.036 | defactinib -0.019 | rucaparib -0.02 | [9] -0.022 | encorafenib 0.006 | [10] 0.01

SLC35A3 isoform 2 (UniProt Q9Y2D2)
inactive: [1] 0.095 | volasertib -0.058 | [2] -0.305 | epoxomicin -0.368 | [3] -0.074 | [4] 0.002 | rosiglitazone 0.009 | [7] -0.047 | sotrastaurin -0.019 | [8] -0.129 | rucaparib -0.012 | encorafenib 0.005

SLC25A5 (UniProt P05141)
inactive: [1] -0.049 | volasertib 0.159 | [2] 0.022 | epoxomicin -0.055 | [3] 0.013 | [4] 0.011 | [5] -0.032 | rosiglitazone 0.013 | [6] -0.06 | [7] 0.1 | saracatinib 0.069 | sotrastaurin 0.05 | alvocidib -0.065 | Tubastatin A -0.023 | [8] 0.022 | defactinib -0.018 | rucaparib 0.013 | [9] 0.009 | encorafenib -0.056 | [10] 0.004

SLC3A2 isoform 3 (UniProt P08195)
inactive: [1] 0.024 | volasertib -0.033 | [2] -0.028 | epoxomicin 0.026 | [3] 0.016 | [4] -0.044 | [5] -0.011 | rosiglitazone -0.017 | [6] -0.113 | [7] 0.218 | saracatinib 0.009 | sotrastaurin 0.033 | alvocidib -0.049 | Tubastatin A -0.005 | [8] -0.042 | defactinib -0.042 | rucaparib 0.017 | [9] 0.063 | encorafenib -0.003 | [10] 0.017
